Laboratory results reported in article doi:10.1101/2024.11.01.621505.
Where a chain is given by its changes, count along the chain named. These are yes or no findings as the source states them, for the method shown. Binding seen in cells or lysates may run through a third protein. Some results given as binding are weak or reduced against the parent protein; the word gives no strength. Sequences can lack the tags named with a protein.

Tests used:
CCR9-RlucII (human) = biological target: T1, CCR9-RlucII (human) (UniProt P51686); assay: FRET or BRET
T1 sequence: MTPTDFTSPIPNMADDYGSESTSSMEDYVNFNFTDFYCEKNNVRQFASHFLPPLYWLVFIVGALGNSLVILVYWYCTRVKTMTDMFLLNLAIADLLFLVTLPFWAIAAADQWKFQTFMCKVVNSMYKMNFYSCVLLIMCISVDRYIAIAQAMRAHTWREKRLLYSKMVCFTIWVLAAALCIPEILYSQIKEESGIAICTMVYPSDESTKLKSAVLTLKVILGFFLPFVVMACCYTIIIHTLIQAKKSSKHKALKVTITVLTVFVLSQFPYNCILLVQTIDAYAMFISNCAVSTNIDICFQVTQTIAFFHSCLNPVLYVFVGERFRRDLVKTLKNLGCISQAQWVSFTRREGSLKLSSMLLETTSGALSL

[1] = biological target: T2, CCR9 C2-RlucII (T362A/T363A/S364A/S368A) (human) (UniProt P51686); assay: FRET or BRET
T2 sequence: T1 sequence with T362A, T363A, S364A, S368A

Question: How did the binding (CCR9-RlucII (human)) turn out when “GFP10-β-arrestin2 (from UniProt P32121 1-409)” was run?
Answer: binds

Question: And the binding [1]?
Answer: binds
